Experimental data: PubChem BioAssay AID743454 (Peter MacCallum Cancer Centre, 2014)

Purpose: 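Knock-downs lowering viability or raising caspase 3/7 activity in vorinostat-treated resistant cells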 (primary screen)
Cell system: human HCT116-VR colon cancer cells, selected for vorinostat resistance
Knock-down reagent: siRNA pool against human genes, 40 nM siRNA pool
Time to read-out: vorinostat for 24 h, read-out about 72 h after transfection
Treatment: vorinostat at 2.5 µM final
Measurement: 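Two measures, CellTiter-Fluor viability and luminescent caspase 3/7 activity, each as fold change against same-plate mock wells, mean of duplicates, then screen-wide robust z-score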
Scale: viability robust z-score: higher = more viable cells than screen typical; caspase robust z-score: higher = more caspase 3/7 activity than screen typical
Rule for the call: 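a knock-down is a hit when classed RV1 or RV2 for lowered viability, or CA1 or CA2 for caspase activation; those lethal without drug were dropped; hits were retested singly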
The whole screen tested about 18,000 reagents; below is a random part of them. 450 of them (2.5%) count as active. 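Single biological run; no consistent viability z cut-off exists, so the class columns, not z-scores, define the calls.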 A number with no mark means an inactive call. Reagents against one gene are numbered here. No sequences are given here.

Knock-down of PLK3 (polo like kinase 3) gave: viability hit class no change; caspase hit class no change; viability robust z-score -0.78; caspase robust z-score 1.64.
After knock-down of FOXD4L3 (forkhead box D4 like 3) #1 the results were viability hit class no change; caspase hit class no change; viability robust z-score 0.77; caspase robust z-score -0.65.
With knock-down of FOXD4L3 (forkhead box D4 like 3) #2, the record shows viability hit class no change; caspase hit class no change; viability robust z-score -0.66; caspase robust z-score 0.09.
XPNPEP2 (X-prolyl aminopeptidase 2) scored viability hit class no change; caspase hit class no change; viability robust z-score -0.09; caspase robust z-score 3.13.
With knock-down of LHX3 (LIM homeobox 3), the record shows viability hit class no change; caspase hit class no change; viability robust z-score -0.22; caspase robust z-score -0.58.
ALOXE3 (arachidonate epidermal lipoxygenase 3) showed viability hit class no change; caspase hit class no change; viability robust z-score -0.77; caspase robust z-score 1.66.
Knock-down of TAFA1 (TAFA chemokine like family member 1) came out at: viability hit class no change; caspase hit class no change; viability robust z-score -0.8; caspase robust z-score -0.32.
Silencing of NREP (neuronal regeneration related protein) came out at: viability hit class no change; caspase hit class no change; viability robust z-score 0.2; caspase robust z-score 2.87.
PARVA (parvin alpha) scored viability hit class no change; caspase hit class no change; viability robust z-score 1.21; caspase robust z-score -0.12.
With knock-down of RFNG (RFNG O-fucosylpeptide 3-beta-N-acetylglucosaminyltransferase) the results were viability hit class no change; caspase hit class no change; viability robust z-score 1.09; caspase robust z-score -0.86.
Depletion of HS3ST5 (heparan sulfate-glucosamine 3-sulfotransferase 5) came out at: viability hit class no change; caspase hit class no change; viability robust z-score 0.73; caspase robust z-score -0.46.
ALG9 (ALG9 alpha-1,2-mannosyltransferase) gave viability hit class no change; caspase hit class no change; viability robust z-score 0.08; caspase robust z-score 2.34.
TTBK2 (tau tubulin kinase 2) scored viability hit class no change; caspase hit class no change; viability robust z-score -0.18; caspase robust z-score 1.14.

2 entries already listed, sorted by “caspase robust z-score”, highest first:
PARVA (parvin alpha) → viability hit class = no change; caspase hit class = no change; viability robust z-score = 1.21; caspase robust z-score = -0.12
RFNG (RFNG O-fucosylpeptide 3-beta-N-acetylglucosaminyltransferase) → viability hit class = no change; caspase hit class = no change; viability robust z-score = 1.09; caspase robust z-score = -0.86

Continued.
PEBP4 (phosphatidylethanolamine binding protein 4) gave viability hit class no change; caspase hit class no change; viability robust z-score -0.4; caspase robust z-score -0.46.
DPYSL2 (dihydropyrimidinase like 2) gave viability hit class no change; caspase hit class no change; viability robust z-score -1.87; caspase robust z-score 0.84.
After knock-down of OR5AN1 (olfactory receptor family 5 subfamily AN member 1), the screen gave viability hit class no change; caspase hit class no change; viability robust z-score -0.24; caspase robust z-score 2.8.
MRPS14 (mitochondrial ribosomal protein S14) showed viability hit class no change; caspase hit class no change; viability robust z-score 1.09; caspase robust z-score 0.3.
After knock-down of OR1E2 (olfactory receptor family 1 subfamily E member 2), the screen gave viability hit class no change; caspase hit class no change; viability robust z-score 1.96; caspase robust z-score -0.45.
HYAL2 (hyaluronidase 2) gave viability hit class no change (active); caspase hit class CA1 (caspase activation); viability robust z-score -1.65; caspase robust z-score 6.94.
For COG7 (component of oligomeric golgi complex 7) the deposit lists viability hit class no change; caspase hit class no change; viability robust z-score 0.24; caspase robust z-score -0.2.
Against DHRS2 (dehydrogenase/reductase 2), the values are viability hit class no change; caspase hit class no change; viability robust z-score 1.72; caspase robust z-score -0.13.
